Measured values published in PubChem BioAssay AID743255 (National Center for Advancing Translational Sciences (NCATS), 2014).
Among all 390,000 compounds or so, about 910 (0.23%) were called active. Inconclusive means that the source gave no clear call. Such entries were picked first, then a sample of the others. The call rests on the fitted dose curve; in most records, active means well fitted inhibition curve with a large enough effect; inconclusive means small, poorly fitted or top-dose-only effect; inactive means no such curve, though single readings can be large or run the other way. Potencies beside an inconclusive call are fits to weak or partial responses and may not hold up.

The chains behind the UniProt entries cited, without tags or fusion partners. Where a name states a change or a piece, a line headed by the entry shows the natural chain unless it says otherwise.
UniProt O94782: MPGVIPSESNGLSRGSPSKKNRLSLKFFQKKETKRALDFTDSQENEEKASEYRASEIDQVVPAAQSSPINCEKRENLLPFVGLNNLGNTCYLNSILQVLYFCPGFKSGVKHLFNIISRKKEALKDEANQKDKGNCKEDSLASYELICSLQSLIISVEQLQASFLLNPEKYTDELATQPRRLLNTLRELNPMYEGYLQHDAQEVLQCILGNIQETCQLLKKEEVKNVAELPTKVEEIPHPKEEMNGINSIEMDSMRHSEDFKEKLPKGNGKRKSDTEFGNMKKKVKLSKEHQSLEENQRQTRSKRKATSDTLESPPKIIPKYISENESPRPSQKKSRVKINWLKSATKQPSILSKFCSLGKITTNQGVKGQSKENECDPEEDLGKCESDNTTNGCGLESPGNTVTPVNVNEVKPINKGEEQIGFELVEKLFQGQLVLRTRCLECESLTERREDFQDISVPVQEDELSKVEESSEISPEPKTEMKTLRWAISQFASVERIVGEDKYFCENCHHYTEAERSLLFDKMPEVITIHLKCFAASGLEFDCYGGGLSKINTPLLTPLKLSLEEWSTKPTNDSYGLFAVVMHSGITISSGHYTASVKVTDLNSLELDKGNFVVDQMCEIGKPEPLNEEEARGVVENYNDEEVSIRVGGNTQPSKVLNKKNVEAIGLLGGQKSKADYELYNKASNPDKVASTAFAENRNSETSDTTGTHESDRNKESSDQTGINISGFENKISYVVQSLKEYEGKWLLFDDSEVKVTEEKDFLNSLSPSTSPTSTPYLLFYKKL

Each molecule was assayed against Ubiquitin carboxyl-terminal hydrolase 1 (Homo sapiens) (UniProt O94782) (assay: Inhibitors of USP1/UAF1: Primary Screen). Details: recombinant USP1/UAF1, Ub-Rhodamine cleavage fluorescence; activity change, negative = inhibition: at 57.1 µM (top of the series).
In short: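 In this screen, compounds sit with the deubiquitinase complex (1nM) for 15 min at room temperature before Ub-Rho is added at 150nM final. Fluorescence rise is then followed for 6 reads every 60 seconds.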
Further: nearly all actives have a fitted effect of over 60% in size.
On the % scale 0 is the no-effect control and ±100 the full control effect; potency means the concentration at half of the fitted maximal effect.

| SMILES | Potency | activity change, negative = inhibition |
| --- | --- | --- |
| CC(NC(=O)C1CCN(S(=O)(=O)c2ccc3nc4c(c(C(=O)O)c3c2)CCCC4)CC1)c1ccccc1 (stereo unspecified) | inconclusive: 7.94 µM [inhibitor, single point] |  |
| O=C(Nc1ccc(C(=O)N2CCOCC2)cc1)c1ccc([N+](=O)[O-])cc1 | inconclusive: 44.7 µM [inhibitor, partial curve, poor fit] |  |
| CC(=O)Nc1sc(NC(=O)c2ccc([N+](=O)[O-])cc2)nc1-c1cccs1 | inactive |  |
| Nc1cccc(C(=O)c2ccccc2C(=O)O)c1 | inconclusive: 7.08 µM [inhibitor, single point] |  |
| CC(C)C[C@H]1CN=C(Nc2ccccc2)N1CC1CCCC1 | inactive |  |
| N#Cc1c(NC(=O)CS(=O)(=O)c2ccc(Cl)cc2)sc2c1CCCCC2 | inactive |  |
| CC1=NN(c2ccc(C)cc2C)C(=O)C1C(c1ccccc1)C1C(=O)N(c2ccc(C)cc2C)N=C1C (stereo unspecified) | inconclusive: 44.7 µM [inhibitor, partial curve] |  |
| CC(C)CN(CC(C)C)S(=O)(=O)N1CCC(C(=O)NC2CCCCCCC2)CC1 | inconclusive: 39.8 µM [inhibitor, partial curve, poor fit] |  |
| CCCC(=O)c1ccc(OC(=O)c2c(-c3ccccc3Cl)noc2C)cc1 | inconclusive: 224 µM [inhibitor, partial curve, poor fit] |  |
| COc1cccc(CNc2ccc(S(N)(=O)=O)cc2)c1OCc1ccccc1F | inactive |  |
| COCCn1c(=N)c(C(=O)NCc2ccco2)cc2c(=O)n3cc(C)ccc3nc21 | inconclusive: 0.02 µM [inhibitor, full curve, poor fit] |  |
| COc1cccc(-c2cc3nc(C)c(C)c(N4CCN(C(=O)c5ccoc5)CC4)n3n2)c1 | inconclusive: 39.8 µM [inhibitor, partial curve] |  |
| Cc1ccc(Cn2c(SCc3ccc(C(=O)NC4CCCC4)cc3)nc3ccncc32)cc1 | inactive |  |
| Cc1nn(-c2ccccc2)c(OC(=O)C(C)(C)C)c1Sc1ccccc1 | inconclusive: 8.91 µM [inhibitor, full curve, poor fit] |  |
| CCCc1cc(C(=O)Nc2c(C)nn(Cc3ccc(Cl)c(Cl)c3)c2C)no1 | inactive |  |
| Cc1ccc2c(c1)C(=O)C(=O)N2Cc1ccc(C(F)(F)F)cc1 | inconclusive: 39.8 µM [inhibitor, partial curve, poor fit] |  |
| OCCCc1nc2n(n1)C(c1cccc(Cl)c1)C=C(c1ccccc1)N2 (stereo unspecified) | inconclusive: 15.8 µM [inhibitor, partial curve] |  |
| [O-][N+]1=C2CCC/C(=N\O)C2=NC12CCCCC2 | inconclusive: 12.6 µM [inhibitor, partial curve, poor fit] |  |
| COc1cc(-c2cc(OC)c3c(C)oc(C)c3c(=O)c2)ccc1OC(=O)c1ccccc1F | inconclusive: 15.8 µM [inhibitor, partial curve] |  |
| CCOC(=O)CC(NS(=O)(=O)c1ccc(OC)c(OC)c1)c1cccc([N+](=O)[O-])c1 (stereo unspecified) | inactive |  |
| COc1ccc(S(=O)(=O)N2CCCC2C(=O)Nc2nnc(-c3cccnc3)s2)cc1 (stereo unspecified) | inconclusive: 0.355 µM [inhibitor, full curve, poor fit] |  |
| NS(=O)(=O)c1ccc(NCc2c(F)cccc2Cl)cc1 | inactive |  |

| SMILES | Potency | activity change, negative = inhibition |
| --- | --- | --- |
| COc1ccc(-c2oc3cccnc3c2C#CCO)cc1 | inconclusive: 3.55 µM [inhibitor, full curve, poor fit] |  |
| Cc1ccc(C)c2[nH]c(=O)c(C(c3nnnn3Cc3ccccc3)N3CCc4ccccc4C3)cc12 (stereo unspecified) | inconclusive: 31.6 µM [inhibitor, partial curve] |  |
| Cc1cc(C)n(Cc2ccc(C(=O)N/N=C/c3ccc(-c4ccc([N+](=O)[O-])cc4)o3)o2)n1 | inconclusive: 44.7 µM [inhibitor, partial curve] |  |
| Cc1ccc(Cl)cc1NC(=O)C1CCN(c2nc3ccccc3n3cccc23)CC1 | inconclusive: 0.631 µM [inhibitor, full curve, poor fit] |  |
| NC(=S)N=Nc1ccc(NN=C(N)N)cc1 |  | inconclusive: -28.5% [inhibitor] |
| CC(C)CC(=O)OC(C)(C)[C@@H]1Cc2c(ccc3ccc(=O)oc23)O1 | inconclusive: 44.7 µM [inhibitor, partial curve, poor fit] |  |
| CCOc1ccccc1/C=N/NC(=O)c1nnn(-c2nonc2N)c1CN1CCC(C)CC1 | inconclusive: 5.62 µM [inhibitor, single point] |  |
| CCOc1ccc2oc(C(=O)N3CCN(c4ccccn4)CC3)c(C)c2c1 | inconclusive: 50.1 µM [inhibitor, partial curve, poor fit] |  |
| COc1ccc(CC(=O)NCc2nnc(SCC(=O)c3ccc(OC)cc3)n2C)cc1 | inactive |  |
| COc1ccccc1N1C(=O)S/C(=C\c2cccs2)C1=O | inconclusive: 14.1 µM [inhibitor, partial curve, poor fit] |  |
| Cc1ccc(/C=N/NC(=O)NC2CCCCC2)o1 | inactive |  |
| O=c1oc2ccccc2cc1-c1cn2cc(Cc3ccc(Br)cc3)sc2n1 | inactive |  |
| CC(C)C(C(=O)O)N1C(=O)/C(=C/C=C/c2ccco2)SC1=S (stereo unspecified) | inconclusive: 35.5 µM [inhibitor, single point] |  |
| Fc1ccc(Br)cc1C1C=C(c2ccc(Br)cc2)Nc2nnnn21 (stereo unspecified) | inconclusive: 70.8 µM [inhibitor, partial curve, poor fit] |  |
| CC1=Nc2cc(C(=O)NC(C)C)ccc2Sc2ccc(C)cc21 | inconclusive: 50.1 µM [inhibitor, partial curve, poor fit] |  |
| Cc1nc(=S)c2ccccc2[nH]1 | inactive |  |
| Cc1cc(C)cc(NC(=O)C2CCN(S(=O)(=O)c3cccc(-c4noc(C)n4)c3)CC2)c1 |  | inconclusive: -28% [inhibitor] |
| CC(=O)c1ccc(N2CCN(C(=O)C3CCC3)CC2)cc1 | inactive |  |
| O=C(O)c1cccc(N=NN2CCOCC2)c1 | inconclusive: 0.251 µM [inhibitor, full curve, poor fit] |  |
| CCOc1ccccc1C=C1CCc2ccccc2C1=O | inactive |  |
| COc1cc(OC)cc(-c2sc3ccc(OC)cc3c2C#CC2(N)CCCCC2)c1 | inconclusive: 25.1 µM [inhibitor, partial curve] |  |
| COc1ccc2cc(CO)c3cc(OC)c(OC)cc3c2c1 | inconclusive: 50.1 µM [inhibitor, partial curve, poor fit] |  |

Random excerpt: 2 records from the list.

| SMILES | Potency | activity change, negative = inhibition |
| --- | --- | --- |
| CCOc1ccccc1/C=N/NC(=O)c1nnn(-c2nonc2N)c1CN1CCC(C)CC1 | inconclusive: 5.62 µM [inhibitor, single point] |  |
| CCOc1ccc2oc(C(=O)N3CCN(c4ccccn4)CC3)c(C)c2c1 | inconclusive: 50.1 µM [inhibitor, partial curve, poor fit] |  |

Further compounds follow:

| SMILES | Potency | activity change, negative = inhibition |
| --- | --- | --- |
| COCCN1C(=O)/C(=C/c2ccc(N3CCCC3)cc2C)SC1=S | inconclusive: 39.8 µM [inhibitor, partial curve, poor fit] |  |
| Cc1ccc(N=C2SC(C(=O)O)CC(=O)N2C)cc1C (stereo unspecified) | inconclusive: 10 µM [inhibitor, partial curve, poor fit] |  |
| O=C(CSc1nnnn1-c1ccc2c(c1)OCCO2)N1CCc2ccccc21 | inconclusive: 39.8 µM [inhibitor, partial curve, poor fit] |  |
| COc1cc2c3nnc(-c4ccc(F)cc4)c-3cn(Cc3ccc(C)cc3)c2cc1OC | active: 31.6 µM |  |
| c1ccc(Cn2nnc3c(N4CCOCC4)ncnc32)cc1 | inconclusive: 7.94 µM [inhibitor, partial curve] |  |
| CC(C)n1c(-c2ccco2)csc1=Nc1cccnc1 | inactive |  |
| CCOC(=O)c1c(NC(=O)/C=C/c2ccc(Cl)cc2)sc2c1CCC(C)C2 (stereo unspecified) | inconclusive: 7.94 µM [inhibitor, partial curve] |  |
| CCOC(=O)c1c(C)oc2nc(C)nc(N3CCN(c4cccc(C(F)(F)F)c4)CC3)c12 | inconclusive: 8.91 µM [inhibitor, partial curve, poor fit] |  |
| CCCN(CCC)CCNC(=O)c1nn(C)c2c1CS(=O)(=O)c1ccccc1-2 | inactive |  |
| CC(C#N)Sc1nnc(-c2ccccc2F)n1C1CC1 (stereo unspecified) | inconclusive: 6.31 µM [inhibitor, single point] |  |
| COCCn1c(N)c(C(=O)NCc2cccs2)c2nc3ccccc3nc21 | inconclusive: 31.6 µM [inhibitor, single point] |  |
| Cc1ccc2c(C(=O)N3CCN(c4ccccc4)CC3)cc(-c3cccnc3)nc2c1C | inactive |  |
| COC(=O)c1ccc2c(=O)n(CCCCCC(=O)NCc3ccc(OC)cc3)c(=O)[nH]c2c1 | inconclusive: 31.6 µM [inhibitor, partial curve, poor fit] |  |
| COc1cccc(C(C(=O)Nc2ccc(F)cc2)N(C(=O)Cn2nnc3ccccc32)C2CC2)c1 (stereo unspecified) | inconclusive: 0.282 µM [inhibitor, full curve, poor fit] |  |
| CCc1ccc(C2c3c(-c4ccccc4)n[nH]c3C(=O)N2c2ccc(C(=O)O)cc2)cc1 (stereo unspecified) | inactive |  |
| C=CCN1C(=O)/C(=C2/Sc3ccccc3N2CCCS(=O)(=O)O)SC1=S | inactive |  |
| COc1cc(-c2nnc(COC(=O)c3ccc([N+](=O)[O-])o3)o2)cc(OC)c1OC | inconclusive: 44.7 µM [inhibitor, partial curve, poor fit] |  |
| Cc1ccc(C)c(NC(=O)c2ccc3c(c2)CCN3S(=O)(=O)c2ccccc2)c1 | inconclusive: 39.8 µM [inhibitor, single point] |  |
| Cc1cc(C)cc(OCCSc2nc(-c3cccs3)nc3cc(=O)[nH]n23)c1 | inconclusive: 3.16 µM [inhibitor, full curve] |  |
| COC(=O)c1cc(NC(=O)c2cccc(C(F)(F)F)c2)c(=O)oc1C/C=N/OCc1cccc(Cl)c1Cl | inconclusive: 44.7 µM [inhibitor, partial curve] |  |
| O=C(CCCn1c(=O)[nH]c2ccccc2c1=O)N1CCN(c2ccccc2)CC1 | inactive |  |
| CC(=O)c1ccc(NC(=O)Cn2c(=O)oc3cc(S(=O)(=O)N4CCCCC4)ccc32)cc1 | inconclusive: 50.1 µM [inhibitor, partial curve, poor fit] |  |
